In PMC12406728:
These are yes or no findings as the source states them, for the method shown. Binding seen in cells or lysates may run through a third protein. Some binding calls cover weakened binding; strength is not graded here. For some of these results: Where a sequence is shown, tags or fusion partners need not be part of it.

By UniProt entry, the sequences of proteins in these tests, tags left out. Residues count along the entry.
UniProt P21860, residues 20-1342: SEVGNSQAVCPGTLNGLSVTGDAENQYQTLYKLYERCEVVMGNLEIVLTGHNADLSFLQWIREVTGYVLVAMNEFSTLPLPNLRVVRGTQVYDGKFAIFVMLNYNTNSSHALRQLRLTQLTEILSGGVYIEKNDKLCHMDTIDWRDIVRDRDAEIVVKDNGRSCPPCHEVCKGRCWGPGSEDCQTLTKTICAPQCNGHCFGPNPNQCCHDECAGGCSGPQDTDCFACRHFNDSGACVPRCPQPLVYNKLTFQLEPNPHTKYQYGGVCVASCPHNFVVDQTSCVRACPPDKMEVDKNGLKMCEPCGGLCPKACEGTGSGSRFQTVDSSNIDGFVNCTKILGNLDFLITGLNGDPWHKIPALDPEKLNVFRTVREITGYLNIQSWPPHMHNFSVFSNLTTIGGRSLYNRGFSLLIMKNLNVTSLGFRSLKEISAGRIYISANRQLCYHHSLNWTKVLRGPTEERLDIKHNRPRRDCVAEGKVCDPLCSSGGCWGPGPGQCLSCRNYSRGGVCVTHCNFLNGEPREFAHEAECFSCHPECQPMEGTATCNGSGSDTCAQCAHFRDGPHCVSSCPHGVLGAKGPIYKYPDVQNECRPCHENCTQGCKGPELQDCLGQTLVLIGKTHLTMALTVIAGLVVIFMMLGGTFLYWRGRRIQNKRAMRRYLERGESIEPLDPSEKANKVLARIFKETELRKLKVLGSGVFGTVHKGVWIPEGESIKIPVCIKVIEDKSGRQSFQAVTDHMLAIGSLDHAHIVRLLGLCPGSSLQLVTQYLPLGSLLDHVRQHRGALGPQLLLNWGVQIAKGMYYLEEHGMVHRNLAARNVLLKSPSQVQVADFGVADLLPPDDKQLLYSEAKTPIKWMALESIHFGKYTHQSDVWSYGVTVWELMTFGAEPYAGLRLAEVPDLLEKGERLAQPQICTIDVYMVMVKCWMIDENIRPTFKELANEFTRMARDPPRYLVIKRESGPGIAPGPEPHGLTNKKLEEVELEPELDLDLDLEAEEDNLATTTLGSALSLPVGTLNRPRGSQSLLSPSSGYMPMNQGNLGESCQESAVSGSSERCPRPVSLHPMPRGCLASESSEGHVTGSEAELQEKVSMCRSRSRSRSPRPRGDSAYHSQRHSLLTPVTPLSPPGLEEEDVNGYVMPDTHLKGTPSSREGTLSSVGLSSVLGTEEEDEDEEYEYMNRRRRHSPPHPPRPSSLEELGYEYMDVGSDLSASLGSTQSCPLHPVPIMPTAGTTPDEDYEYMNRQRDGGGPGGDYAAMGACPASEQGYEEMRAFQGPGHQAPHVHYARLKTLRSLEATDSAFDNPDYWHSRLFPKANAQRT

Assays:
[1] = target: HER3 (transfected, no tag named) (UniProt P21860); assay: proximity ligation; HEK293 cells transfected with HER3 and ASPN-FLAG; PLA with anti-ASPN and anti-HER3, confocal microscopy
[2] = target: human HER3-FLAG (transfected) (human) (UniProt P21860); assay: co-IP; LNCaP HER2-KO cells transfected with HER3-FLAG, ASPN, with or without HER2; anti-FLAG beads; immunoblot for HER3, HER2, ASPN
[3] = target: human HER3-FLAG (transfected) (human) (UniProt P21860); assay: co-IP; LNCaP cells transfected with HER3-FLAG and ASPN or empty vector; anti-FLAG beads; immunoblot for HER3, HER2, ASPN
[4] = target: human HER3-FLAG (transfected) (human) (UniProt P21860); assay: co-IP; HEK293 cells transfected with FLAG-tagged HER3 (or deletion mutant) and ASPN or empty vector; anti-FLAG beads; immunoblot for HER3, HER2, ASPN

| Binder | binding [1] | binding [2] | binding [3] | binding [4] |
| --- | --- | --- | --- | --- |
| ASPN-FLAG (ligand, UniProt Q9BXN1 33-380) DMEDTDDDDDDDDDDDDDDEDNSLFPTREPRSHFFPFDLFPMCPFGCQCYSRVVHCSDLGLTSVPTNIPFDTRMLDLQNNKIKEIKENDFKGLTSLYGLILNNNKLTKIHPKAFLTTKKLRRLYLSHNQLSEIPLNLPKSLAELRIHENKVKKIQKDTFKGMNALHVLEMSANPLDNNGIEPGAFEGVTVFHIRIAEAKLTSVPKGLPPTLLELHLDYNKISTVELEDFKRYKELQRLGLGNNKITDIENGSLANIPRVREIHLENNKLKKIPSGLPELKYLQIIFLHSNSIARVGVNDFCPTVPKMKKSLYSAISLFNNPVKYWEMQPATFRCVLSRMSVQLGNFGM | binds | – | – | – |
| human ASPN (transfected) (ligand, UniProt Q9BXN1 33-380) DMEDTDDDDDDDDDDDDDDEDNSLFPTREPRSHFFPFDLFPMCPFGCQCYSRVVHCSDLGLTSVPTNIPFDTRMLDLQNNKIKEIKENDFKGLTSLYGLILNNNKLTKIHPKAFLTTKKLRRLYLSHNQLSEIPLNLPKSLAELRIHENKVKKIQKDTFKGMNALHVLEMSANPLDNNGIEPGAFEGVTVFHIRIAEAKLTSVPKGLPPTLLELHLDYNKISTVELEDFKRYKELQRLGLGNNKITDIENGSLANIPRVREIHLENNKLKKIPSGLPELKYLQIIFLHSNSIARVGVNDFCPTVPKMKKSLYSAISLFNNPVKYWEMQPATFRCVLSRMSVQLGNFGM | – | binds | binds | binds |
